Source: ChEMBL document CHEMBL3988442, “University of Dundee, Small-Polar-MMV Screening Library” (2021).

Values are the deposited “Percent Effect”, in %. How 0% and 100% were set is not recorded. Most values in the screen are low, and negative values occur. Compounds were drawn at random from those tested, without regard to their results. Two or more numbers in one place are separate tests of the same structure; such repeats can differ widely.

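Viability assay of Plasmodium falciparum sporozoites; the read-out is not stated. The concentration is filed as 10 mM, unlikely as a test dose, so the dose is not known. Higher reads as lower viability (inferred: compounds with an IC50 in retests scored well above the rest). Strong results were mostly tested again. Of about 34,000 compounds tested this way, about 280 (0.84%) reached 50% or more in at least one test.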

Compound	Percent Effect
CN(C)[C@@H]1CCN(C(=O)c2ccccn2)[C@H]1Cc1cnn(C)c1	-3.694
O=C(NCCc1cccnc1)c1nc2c(s1)CCCN2C(=O)C1CC1.O=C(O)C(F)(F)F	15.24
Cc1cnc(C(=O)N(CCN(C)C)Cc2ccc(Cl)cc2)cn1	-16.13
CNc1cncc(C2CCCN2C(=O)c2ccc3c(c2)OCCO3)n1 (centres undefined)	0.3347
COc1ccc(C(C)=O)cc1CN1CCn2cccc2C1C (centres undefined)	-28.68
CN(C)Cc1ccnc(C2CCCN2Cc2ccc3ncccc3c2)n1 (centres undefined)	5.53
CC(C)c1ccc(CC2(C)Cc3cc(CC(=O)O)ccc3O2)cc1 (centres undefined)	9.971
CCCC(=O)N1CCN(CCN(C)C)c2nc(C)ccc2C1.O=C(O)C(F)(F)F.O=C(O)C(F)(F)F	-1.302
CCCC(=O)NCCc1nc(N(C)C)ncc1-c1ccncc1	-0.1942
CCn1ccnc1CN1CCCN(C(=O)c2cccn2C)CC1	5.958
O=C(O)C(F)(F)F.[H][C@@]12COC[C@@H](C(=O)Nc3cnccn3)[C@]1([H])CN(C1CCCC1)C2	-16.23
Cc1nc2ccc(C(=O)N3CCC(COc4ccccn4)CC3)cc2[nH]1	13.86
CC(=O)N(Cc1noc(C)n1)C1CCN(Cc2ccon2)C1 (centres undefined)	8.592
O=C(O)C(F)(F)F.[H][C@@]12CCN(C3CCCC3)[C@]1([H])CC[C@H](C(=O)N1CCOCC1)O2	6.25
Cc1ccncc1CN1CCOCC1c1[nH]ncc1C (centres undefined)	-4.491
Cn1cc(CN2CC[C@H](O)[C@@H](n3ccc(=O)[nH]c3=O)CC2)cn1	5.399
CCS(=O)(=O)N(C)C1CCN(C(=O)c2ccc(C)c(C)c2)CC1	4.061
CC1c2ncc(COc3cccnc3)n2CCN1C(=O)Cc1ccco1.O=C(O)C(F)(F)F (centres undefined)	2.412
CN(C(=O)c1cccc(C(=O)NS(C)(=O)=O)c1)c1ccccc1	12
[H][C@@]12CCN[C@]1([H])CN(S(=O)(=O)c1ccc(C)cc1)C2	-17.79 and -8.849 and 28.74
CSc1cc2c(cc1NC(=O)NCC(=O)N(C)C)OCCO2	-16.92 and -17.04 and -26.51
COCCN(C)C1COC2(CCN(Cc3ccccn3)CC2)C1.O=C(O)C(F)(F)F.O=C(O)C(F)(F)F (centres undefined)	-8.516
CCN(Cc1ccncc1)CC1(O)CCN(C(=O)c2cnn(C)c2)C1 (centres undefined)	2.154
COCC(=O)NCc1cc(=O)n2c(n1)CN(Cc1ccco1)CCC2	15.15
CCn1cc(NC(=O)c2cccc(OCC(F)(F)F)n2)cn1	-0.2176
COC(=O)CCNC(=O)c1ccc(OCc2ccccc2)nc1	-0.1098
CC(C)N1CCCCC1c1cncc(Cl)n1 (centres undefined)	2.184
CN(C)S(=O)(=O)c1ccc(CNC(=O)C2CC2)cc1	15.04
CC(Cn1cccn1)NC(=O)NCc1ccccn1 (centres undefined)	-0.7353
Cc1csc2c(=O)n3c(nc12)CCN(C(=O)c1cccnc1)CC3	-3.436
CCN1CC(C(=O)NCc2ccnc(-n3ccnc3C)c2)CC1=O (centres undefined)	2.243
COc1cccc(-c2noc(-c3ccc(NCC4CC4)nc3)n2)c1OC	-11.37
CN(CCn1cccn1)S(=O)(=O)c1cccc(F)c1C#N	-2.057
COCC(=O)Nc1ccc(N2CCC(OC)CC2)c(C(F)(F)F)c1	-14.56
CCc1csc(C2CCCN(C(=O)c3ncccn3)C2)n1 (centres undefined)	0.4554
O=C(c1cccnc1)N1CCOC(Cc2ccccc2Cl)C1 (centres undefined)	14.82
O=C1C(NCc2nnc3n2CCCC3)CCN1c1ccccc1 (centres undefined)	-0.3221
CC(C)N1CCC2(CC1)C[C@@H](O)[C@H](c1ccccc1)NC2=O	4.892
Cc1ncsc1C(=O)NC1CCN(CC(=O)N(C)c2ccccc2)CC1	-3.341
O=C(c1cc2cc(F)ccc2[nH]1)N1CCC(Nc2cccnn2)CC1	3.733
O=C(CCN1CCCN(c2nccs2)CC1)NCC1CCCCC1	-10.05
CN(C)C1COC2(CCN(Cc3ccncc3)CC2)C1 (centres undefined)	9.489
CC(=O)N1CCCC1c1nccnc1NCc1cccnc1 (centres undefined)	6.789
CCN1c2ccc(-c3cncn3CC(=O)NC(C)(C)C)cc2CC1C.Cl (centres undefined)	7.448
Cc1cc(NC(=O)NCC(C)O)n(C)n1 (centres undefined)	2.638
Cc1cccc(NC(=O)C(C)Nc2cccc(CN3CCOC3=O)c2)c1 (centres undefined)	4.266
Cn1nc2c(c1NC(=O)c1ccc(C3CCCN3C3CCC3)s1)CCC2 (centres undefined)	-1.557
Cc1nocc1C(=O)N1CCc2c(CN(C)C(C)C)n[nH]c2C1	-10.2
c1ccc(Cc2noc(CN3CCc4c(ncn4C4CC4)C3)n2)cc1	-14.98 and -2.391 and 8.348
CN(Cc1cccc(F)c1)C(=O)c1cc2c([nH]c1=O)CCCC2=O	16.53
O=C(O)C(F)(F)F.O=C(c1cnccn1)N1CC2(CCN(Cc3ccsc3)C2)C1	6.577
COCCn1nc(C(=O)N2CCCC2c2cccc(F)c2)ccc1=O (centres undefined)	5.059
O=C(O)C(F)(F)F.[H][C@@]12CN(Cc3ccco3)CCC[C@]1(C(=O)OCC)CN(S(C)(=O)=O)C2	-1.969
CCC1CCCN(C(=O)NCc2cccnc2-n2cccn2)C1 (centres undefined)	12.68
Cc1nc(CN2CCC(N(C)Cc3noc(C(C)C)n3)C2)cs1 (centres undefined)	4.604
COCCCNC(=O)Nc1ccc(-n2cncn2)c(C(F)(F)F)c1	11.69
COc1cc(N2CC[C@@H](O)[C@@H]2Cc2cccnc2)ncn1.O=C(O)C(F)(F)F	-8.205
Cc1cnn(CC(=O)NCC2CCN(c3cc(Cl)ccc3C)C2)c1 (centres undefined)	7.131
CN(CCC(=O)N1CCc2sccc2C1)Cc1cc(Br)cs1	6.654
CCSCCC(C)NC(=O)Nc1cccn(C)c1=O (centres undefined)	-15.7
Cc1cc(CN(C)C(=O)NC2CCS(=O)(=O)C2)no1 (centres undefined)	-12.72
Cc1cc(N(C)CCN(C)C)n2nc(C)cc2n1	-31.14 and -26.43
CC(C)c1nc(CN2CCC(c3ccnn3CCO)CC2)no1	21.21
CCOC(=O)C1CSCCN1C(=O)c1ccc(-n2nc(C)cc2C)cc1 (centres undefined)	-3.7
Cc1ccc(-c2nc(C(=O)NCC3CCOC3)cs2)cc1 (centres undefined)	1.952
CCS(=O)(=O)N1CCC(NC(=O)c2cc(C(C)C)ccc2O)CC1	-0.5536
O=C(NCC(O)c1ccc(F)c(F)c1)c1cccnc1O (centres undefined)	-5.893
CC(C)c1ncncc1C(=O)N1CCCN(Cc2cccs2)CC1	-6.266
[H][C@]12C[C@H](NC(=O)C(C)C)[C@@]1([H])CN(S(=O)(=O)c1ccc(C)cc1)C2	-2.467
Cc1noc(C)c1CN1CC[C@@H](OCC2CC2)[C@@H](Cc2ccccc2)C1.O=C(O)C(F)(F)F	-0.1153
O=C(NCc1ccccc1CN1CCOCC1)Nc1nncs1	7.543

9 of the entries, repeated:

* CC(=O)N1CCCC1c1nccnc1NCc1cccnc1 (centres undefined) : 6.789%
* [H][C@@]12CCN[C@]1([H])CN(S(=O)(=O)c1ccc(C)cc1)C2 : -17.79% and -8.849% and 28.74%
* CCOC(=O)C1CSCCN1C(=O)c1ccc(-n2nc(C)cc2C)cc1 (centres undefined) : -3.7%
* CCn1cc(NC(=O)c2cccc(OCC(F)(F)F)n2)cn1 : -0.2176%
* CCS(=O)(=O)N(C)C1CCN(C(=O)c2ccc(C)c(C)c2)CC1 : 4.061%
* Cc1nc2ccc(C(=O)N3CCC(COc4ccccn4)CC3)cc2[nH]1 : 13.86%
* CCC1CCCN(C(=O)NCc2cccnc2-n2cccn2)C1 (centres undefined) : 12.68%
* CC(C)N1CCCCC1c1cncc(Cl)n1 (centres undefined) : 2.184%
* COC(=O)CCNC(=O)c1ccc(OCc2ccccc2)nc1 : -0.1098%